Results: paper PMC11006229, “Structures and dynamics of Rpd3S complex bound to nucleosome” (Science Advances, 2024)
These are yes or no findings as the source states them, for the method shown. Binding seen in cells or lysates may run through a third protein. A yes stands for co-enrichment or nearness to the bait. Other partners may have been found.

Target: T1, Rco1 (S. cerevisiae, UniProt Q04779 1-684)
T1 construct: Rco1, S. cerevisiae, tagged at its chromosomal locus; NTD1/2, PHD1/2, NID (residues 311 to 332), EID (residues 333 to 376), CTD; Two copies (Rco1 and Rco1′) stand in the Rpd3S complex; source: endogenous, S. cerevisiae (Rco1-3x-Flag strain), purified with the Rpd3S complex (ANTI-FLAG M2 resin, glycerol gradient); not shown: 3x-Flag, C-terminal, kept
T1 sequence (looked up): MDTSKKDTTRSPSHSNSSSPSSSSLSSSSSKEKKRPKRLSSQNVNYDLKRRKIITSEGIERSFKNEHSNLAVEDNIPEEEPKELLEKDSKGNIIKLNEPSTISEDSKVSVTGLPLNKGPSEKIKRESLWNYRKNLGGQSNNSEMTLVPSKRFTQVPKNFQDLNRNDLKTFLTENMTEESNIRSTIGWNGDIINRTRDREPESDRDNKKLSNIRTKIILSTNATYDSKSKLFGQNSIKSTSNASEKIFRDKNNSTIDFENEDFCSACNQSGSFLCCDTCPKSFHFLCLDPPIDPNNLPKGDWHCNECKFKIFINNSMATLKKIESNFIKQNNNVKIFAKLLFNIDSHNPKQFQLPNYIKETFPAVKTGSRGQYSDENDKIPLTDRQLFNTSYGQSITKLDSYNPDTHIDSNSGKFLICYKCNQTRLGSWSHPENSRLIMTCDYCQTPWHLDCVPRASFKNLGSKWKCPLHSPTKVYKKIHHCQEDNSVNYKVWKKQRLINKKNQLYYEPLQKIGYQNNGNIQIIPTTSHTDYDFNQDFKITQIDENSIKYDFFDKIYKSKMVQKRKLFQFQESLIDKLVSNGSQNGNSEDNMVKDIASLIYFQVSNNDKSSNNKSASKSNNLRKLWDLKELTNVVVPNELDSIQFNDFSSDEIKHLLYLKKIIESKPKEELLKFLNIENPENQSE
Test: affinity purification with mass spectrometry; Rco1-3x-Flag captured from S. cerevisiae lysate (350 mM NaCl) on ANTI-FLAG M2 resin, eluted with FLAG peptide; components separated by SDS-PAGE and confirmed by mass spectrometry

binding: binds
B1: Ume1 (protein, UniProt Q03010 1-460)
chain: MSTLDIAEDNKIKNEEFKIWKKSIPSLYQHISSLKPIFGSGVDESPSTLRSIVFTNDSSCNKSKGVLSVPLLYSQGSEIFEVDCIVPLGLHYKKPESISEPLVQPDYTMESQKVEQTVLIPKWEFKGETIAKMIYVDNSEINVKVIALSTNGSLAWFREGVKSPVYTMMEPSTSLSSASSGNQNKPCVDFAISNDSKTLTVTKEKHLDNENATIKLIDNSGKIGEVLRTIPVPGIKNIQEIKFLNNQIFATCSDDGIIRFWGNEIGKKPLWILNDSLDGKTTCFAASPFVDTLFMTGTSGGALKVWDIRAVIALGDADAELNINQGHNKVNELFKVHHFYSEQVSKIEFSSISPMEVVTIGGLGNVYHWNFEPVFAIYNEIHEDFQGIISDELEAESMAFYHTEGCRREIGENNKVNTVAYHKYIEDLVATVDSDGLLTVYKPFTGKVLDGSREVGAAKS
